# According to PubChem BioAssay AID1671190 (National Center for Advancing Translational Sciences (NCATS), 2021):
# Sequences of proteins named here, by UniProt entry; tags and fusion partners are left off. A change or cut given only in a name is not applied to a line headed by its entry.
# UniProt P18054: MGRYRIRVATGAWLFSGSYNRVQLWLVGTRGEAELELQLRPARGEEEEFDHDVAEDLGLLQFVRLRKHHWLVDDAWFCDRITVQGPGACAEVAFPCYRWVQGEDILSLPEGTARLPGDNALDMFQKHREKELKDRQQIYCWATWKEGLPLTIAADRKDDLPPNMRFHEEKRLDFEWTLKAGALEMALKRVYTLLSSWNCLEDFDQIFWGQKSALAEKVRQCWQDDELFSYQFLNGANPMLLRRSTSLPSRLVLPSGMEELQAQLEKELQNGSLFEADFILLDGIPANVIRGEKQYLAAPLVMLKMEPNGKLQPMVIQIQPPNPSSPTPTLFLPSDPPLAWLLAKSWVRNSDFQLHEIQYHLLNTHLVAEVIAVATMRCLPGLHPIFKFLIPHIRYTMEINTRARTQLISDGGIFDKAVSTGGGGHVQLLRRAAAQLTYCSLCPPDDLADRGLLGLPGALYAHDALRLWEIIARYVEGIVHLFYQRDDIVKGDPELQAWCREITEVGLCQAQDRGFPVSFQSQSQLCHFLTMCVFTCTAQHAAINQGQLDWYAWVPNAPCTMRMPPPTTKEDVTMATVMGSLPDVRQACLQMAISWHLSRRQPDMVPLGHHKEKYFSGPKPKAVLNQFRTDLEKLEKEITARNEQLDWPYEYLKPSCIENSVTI
# The campaign covered roughly 580,000 compounds. About 6,100 (1.1%) were called active. Inconclusive means that the source gave no clear call. Such entries were picked first, then a sample of the others. Calls come from the whole dose curve; as a rule, active = well fitted inhibition curve with a large enough effect; inconclusive = small, poorly fitted or top-dose-only effect, or another doubt; inactive = no such curve, though single readings can be large or run the other way. Where the call is inconclusive, the potency comes from a doubtful curve fit.
# Molecular target: Polyunsaturated fatty acid lipoxygenase ALOX12 (Homo sapiens) (UniProt P18054)
# Assay: Primary qHTS assay for inhibitors of human arachidonate 12S-lipoxygenase (ALOX12): Round 2
# Settings: purified 12hLO, xylenol orange hydroperoxide absorbance; activity change, negative = inhibition: at 108 µM (top of the series) unless noted
# How it was run: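 Hydroperoxide product was detected by ferrous iron/xylenol orange as the 573 to 405 nm absorbance ratio. Arachidonic acid at 40 uM (final) was turned over for 30 min at room temperature by 150 nM human 12hLO, pH 7.0 Hepes buffer, after 15 min compound preincubation.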
# % is set by controls: 0 for no effect and ±100 for the full control effect; potency is the fitted concentration of half-maximal effect.
Structure (SMILES),"activity change, negative = inhibition",Potency
CCOC(=O)Cc1nn[nH]n1,inactive: -3.7%,–
CCN(Cc1ccccc1)c1ccc(/C=N/NS(=O)(=O)c2cccc([N+](=O)[O-])c2)cc1,–,"inconclusive: 31.6 µM [inhibitor, partial curve]"
COCCN(C(=O)c1cc(-c2ccncc2)nc2ccccc12)c1c(N)n(CC(C)C)c(=O)[nH]c1=O,–,"inconclusive: 112 µM [inhibitor, partial curve, poor fit]"
NNC(=O)c1cccc(Cn2cc(Br)c([N+](=O)[O-])n2)c1,–,"inconclusive: 3.16 µM [inhibitor, full curve, poor fit]"
Cc1ccc(CN(C)C(=O)c2cccc(S(=O)(=O)N3CCc4ccccc43)c2)cc1,–,"inconclusive: 39.8 µM [inhibitor, partial curve, poor fit]"
O=C(c1ccc(S(=O)(=O)N2CCOCC2)cc1)N(Cc1ccco1)Cc1cccs1,–,"inconclusive: 70.8 µM [inhibitor, partial curve, poor fit]"
CCOC(=O)C1=C(C)N(Cc2ccccc2)C(=O)NC1c1ccccc1F (stereo not drawn),–,"inconclusive: 39.8 µM [inhibitor, partial curve, poor fit]"
CCOC(=O)c1c(NC(=O)/C=C/c2ccc(C)o2)sc(C)c1C,–,"inconclusive: 39.8 µM [inhibitor, partial curve]"
CCC1=C(OC(=O)N(CC)CC)N2C(=O)OC(=NCC(=O)OC)[C@]2(C)[C@H]2C1=CC[C@H]1C(=O)NC(=O)[C@H]12,inactive: 0.0345%,–
O=C(CCCc1c[nH]c2ccccc12)NCc1ccc(F)cc1,inactive: -42.3%,–
O=P(CCO)(c1ccccc1)c1ccccc1,inactive: 19.4%,–
O=C(COCc1nc2ccccc2c(=O)[nH]1)Nc1nc(-c2ccc3c(c2)CCCC3)cs1,inactive: 21.9%,–
CCOc1ccc(NC(=O)c2ccc3[nH]c(C)cc(=O)c3c2)cc1,–,"inconclusive: 141 µM [inhibitor, partial curve, poor fit]"
CCOc1ccc(C(=O)OCCN(CC)CC)cc1,–,"inconclusive: 126 µM [inhibitor, single point]"
O[C@@H]1C[C@@H](c2nc(Cc3ccc(F)cc3Cl)no2)N(Cc2cc3ccccc3o2)C1,inactive: -11.1% [at 176 µM],–
COc1cccc(CNS(=O)(=O)c2ccc3[nH]c4c(c3c2)CCCCC4)c1,–,"inconclusive: 35.5 µM [inhibitor, full curve, poor fit]"
CC(=O)c1ccc(NCC(=O)N2N=C(c3ccc(C)o3)CC2c2ccco2)cc1 (stereo not drawn),–,"inconclusive: 3.55 µM [inhibitor, full curve, poor fit]"
COC(=O)c1ccc(COC(=O)c2cc(C(C)=O)c[nH]2)cc1,inconclusive: -39.7% [inhibitor],–

# At a glance, some entries already given:
Structure (SMILES),"activity change, negative = inhibition",Potency
O=C(COCc1nc2ccccc2c(=O)[nH]1)Nc1nc(-c2ccc3c(c2)CCCC3)cs1,inactive: 21.9%,–
CCOc1ccc(NC(=O)c2ccc3[nH]c(C)cc(=O)c3c2)cc1,–,"inconclusive: 141 µM [inhibitor, partial curve, poor fit]"
